Literature values, collected in patent US20080064745A1, “Androgen Modulators” (WARNER-LAMBERT COMPANY LLC, priority 2004, published 2008).
At least one compound was matched to its structure with a doubt left.

What was measured:
[1] = Tosti, Dermatologica 1986
[2] = 83 males, topical solution of 3% minoxidil, 19 months

Compound: Nc1cc(N2CCCCC2)nc(N)[n+]1[O-] [minoxidil, Minoxidil]
- Subjects with cosmetically acceptable re-growth [1]: 18.1%
- Subjects in whom hair growth occurred [2]: 55%
- Subjects who considered the growth cosmetically relevant [2]: 20%
